In patent US20250129153A1 (Johns Hopkins, published 2025):
These are yes or no findings as the source states them, for the method shown. Some binding calls cover weakened binding; strength is not graded here. For some of these results: Sequences can lack the tags named with a protein.

What was measured:
[1] = biological target: T1, human ZnT8 (endogenous, in EndoC-βH1 cells and human pancreatic islets) (human) (UniProt Q8IWU4); test: immunoblot of SDS-denatured total lysate of EndoC-βH1 cells
T1 sequence: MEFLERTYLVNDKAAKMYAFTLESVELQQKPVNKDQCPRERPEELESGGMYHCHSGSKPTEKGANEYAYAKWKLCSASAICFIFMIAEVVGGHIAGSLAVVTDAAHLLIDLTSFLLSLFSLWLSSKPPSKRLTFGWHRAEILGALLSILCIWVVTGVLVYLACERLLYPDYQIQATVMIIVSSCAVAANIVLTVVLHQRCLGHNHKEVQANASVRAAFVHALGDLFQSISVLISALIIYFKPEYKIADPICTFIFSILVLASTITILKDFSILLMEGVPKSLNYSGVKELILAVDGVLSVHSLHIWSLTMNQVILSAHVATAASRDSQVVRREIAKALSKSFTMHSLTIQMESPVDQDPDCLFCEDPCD

[2] = biological target: T1, human ZnT8 (endogenous, in EndoC-βH1 cells and human pancreatic islets) (human); test: immunofluorescence of fixed and permeabilized EndoC-βH1 cells
[3] = biological target: T2, human ZnT8-His (full-length ZnT8, isoform-2, C-terminal His-tag) (human) (UniProt Q8IWU4); test: ELISA titrations, detergent-solubilized ZnT8 and ZnT8 proteoliposomes
T2 sequence (looked up): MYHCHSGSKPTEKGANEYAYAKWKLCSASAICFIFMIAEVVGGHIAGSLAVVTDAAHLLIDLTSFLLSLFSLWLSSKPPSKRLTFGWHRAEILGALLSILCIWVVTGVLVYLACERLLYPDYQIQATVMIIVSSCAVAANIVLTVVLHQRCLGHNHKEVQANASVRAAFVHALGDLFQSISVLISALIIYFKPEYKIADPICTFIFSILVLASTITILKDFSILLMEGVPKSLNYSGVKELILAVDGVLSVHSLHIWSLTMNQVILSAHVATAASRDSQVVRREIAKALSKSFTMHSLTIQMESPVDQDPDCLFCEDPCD

[4] = biological target: T2, human ZnT8-His (full-length ZnT8, isoform-2, C-terminal His-tag) (human); test: ELISA, mAb titration on ZnT8 proteoliposomes passively immobilized on a plate
[5] = biological target: T2, human ZnT8-His (full-length ZnT8, isoform-2, C-terminal His-tag) (human); test: ELISA, mAb titration on detergent-solubilized flZnT8 (ZnT8-His) captured on a plate
[6] = biological target: T3, mouse ZnT8 (endogenous, in mouse pancreatic islets and β-cells) (mouse) (UniProt Q8BGG0); test: immunohistochemistry of paraffin-embedded mouse pancreas sections (chimeric mAb43 by paragraph 174)
T3 sequence (looked up): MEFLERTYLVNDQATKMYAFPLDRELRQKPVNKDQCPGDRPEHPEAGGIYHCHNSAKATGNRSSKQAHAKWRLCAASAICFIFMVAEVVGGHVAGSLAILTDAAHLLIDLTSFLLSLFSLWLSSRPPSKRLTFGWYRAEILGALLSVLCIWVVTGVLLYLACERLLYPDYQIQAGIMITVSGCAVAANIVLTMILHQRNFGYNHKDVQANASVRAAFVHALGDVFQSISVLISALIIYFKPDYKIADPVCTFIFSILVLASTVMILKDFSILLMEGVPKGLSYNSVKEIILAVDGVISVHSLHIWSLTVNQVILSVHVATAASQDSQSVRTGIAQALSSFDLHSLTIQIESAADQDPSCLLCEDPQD

[7] = biological target: T3, mouse ZnT8 (endogenous, in mouse pancreatic islets and β-cells) (mouse); test: flow cytometry and sorting of live dispersed mouse pancreatic cells, chimeric mAb43 with PE anti-human IgG

Measured: binding

B1: mAb20 (antibody, mouse IgG1, kappa, V domains shown)
VH: QIQLVQSGPELKKPGETVKISCKASGYIFTNYPMHWVKQAPGKGLKWMGWINTYSGVPTHADDFKGRFAFSLETSANSAFLQINNLKNEDTATYFCTRSRITPTGGYAMDYWGQGTSVTVSS
VL: DVVMTQTPLSLPVSLGDQASISCRSSQSLVHSNGNTYLHWYLQKPGQSPNLLISKVSNRFSGVPERFSGSGSGTDFTLKISRVEAEDLGVYFCSQNTHVPWTFGGGTKLEIKR
notes: Validated anti-CTD control antibody; also called anti-CTD mAb20; mAb20-A647 (mAb20 labeled with a fluorescent A647 secondary antibody)
not listed: [6] | [7]
binds: all other assays above

B2: chimeric mAb43 (mouse-Fab/human-Fc) (antibody, V domains shown)
VH: EVQLQQSGPELVKPGASVKIACKASGYTFTGYYMKWVKQSLGKSLEWIGDINPNNGGTNYNQHFKGKATLTVDESSSTAYMELRSLTSEDSAVYYCARGVDWIFAFWGQGTLVTVSP
VL: SIVMTQTPKFLPVSAGDRVTMTCKASQSVGNKVAWYQQKPGQSPKLLIYYATNRYTGVPDRFTGSGSGTDFTFTISSVQVEDLAVYFCQQHYSSPWTFGGGTKLEIK
binds: [6] | [7]
